Results from article doi:10.1101/2025.02.21.639493.
Results are given in words; binding and its absence hold for the method and conditions named. Binding seen in cells or lysates may run through a third protein. Here binding means that the protein was enriched with, or labelled near, the bait; the list need not be complete.

B1: RDM4 (endogenous) (protein, UniProt Q8GYP3 1-346)
chain: MDGVGESSTQNEVEEKPVIVRVKRKVGQSLLDAFWLEINERPLKRPTLDFSKLSISDSGERGPSVAEDVKPKKVLVRHLETVTDSETTADIIHSFFESDHNEKSCSKGKFEERKIAFKKDNRKEQRLTKSVQKQQIASENARFEQIWRSRKGNKEGIHEKCHFFDVIRVDTEERRDNAQEFTSLEDQKMLASFLPLLRECIPTAAEEIEADIQSSHTEEYVYDYYAVNEEMDISEDSSKNQFPLVIVEDEEEFCDGSDESDYDSEDSNAEDHPKTDYPEEEEEEEEEDDDDDDDDESEEEKSEASDESDDEETSKRHVRSVLGDDEFDDYAEDVYGYSESDEEFES
B2: REM12 (endogenous) (protein, UniProt P0CAP4 1-446)
chain: MVLNSSDLGPSRCDIRDLPAPSSTNDQGKTELARKKKVKRSNTEIEADASSSDNSCFVALVTASNLRKDALYLPQDLTSSVGLERKYREIVVTDERERRSWALDLRFNKSSDTFYISRGWRSFCDENGKKPGGVFVFKLVGNRETPVLSFCSTESINDGTQGHKNNKYNCMELKSKKKRMRCRDSTSPSQNRFMTLTLTHDNLIKSRRYLPLSFTRDNGLDKPGMIFLLGKTGRKWEANLLREASGRIVLTGKGWKEFAMANGLKSGELFTLEAILEKGTPMLSLVNTQSTNYRSQQGECSRDSEKESSICAEPSRGNKKWKATNNRKERRDSSSAIQNRYVTLTLTPEDVRACTLILPSQFMKANGINKLGKKTLLGQNRKKWFAYLLSKSGFVALGSGWKGFCEANGVKTGESFNLEYIDEQDTTPVFKFCSNSVEYVKFTSLP
B3: CLASSY 3 (CLSY3) (endogenous) (protein, UniProt F4I8S3 1-1410)
chain: MECIGKRVKSRSWQRLQAVNKRKKMETVAPVTSPPKKRRQKKPKNYDSDIEDITPTCNDSVPPPQVSNMYSVPNNSVKESFSRIMRDLNVEKKSGPSSSRLTDGSEQNPCLKERSFRVSDLGVEKKCSPEITDLDVGIPVPRFSKLKDVSEQKNTCLMQKSSPEIADLDLVISVPSSSVLKDVSEEIRFLKDKCSPEIRGLVLEKSVPGEIEILSDSESETEARRRASAKKKLFEESSRIVESISDGEDSSSETDEEEEENQDSEDNNTKDNVTVESLSSEDPSSSSSSSSSSSSSSSSSSSDDESYVKEVVGDNRDDDDLRKASSPIKRVSLVERKALVRYKRSGSSLTKPRERDNKIQKLNHREEEKKERQREVVRVVTKQPSNVVYTCAHCGKENTGNPESHSSFIRPHSIRDEIEDVNNFASTNVSKYEDSVSINSGKTTGAPSRPEVENPETGKELNTPEKPSISRPEIFTTEKAIDVQVPEEPSRPEIYSSEKAKEVQAPEMPSRPEVFSSEKAKEIQVPEMPSIPEIQNSEKAKEVQANNRMGLTTPAVAEGLNKSVVTNEHIEDDSDSSISSGDGYESDPTLKDKEVKINNHSDWRILNGNNKEVDLFRLLVNSVWEKGQLGEEDEADELVSSAEDQSQEQAREDHRKYDDAGLLIIRPPPLIEKFGVEEPQSPPVVSEIDSEEDRLWEELAFFTKSNDIGGNELFSNVEKNISANETPAAQCKKGKHDLCIDLEVGLKCMHCGFVEREIRSMDVSEWGEKTTRERRKFDRFEEEEGSSFIGKLGFDAPNNSLNEGCVSSEGTVWDKIPGVKSQMYPHQQEGFEFIWKNLAGTIMLNELKDFENSDETGGCIMSHAPGTGKTRLTIIFLQAYLQCFPDCKPVIIAPASLLLTWAEEFKKWNISIPFHNLSSLDFTGKENSAALGLLMQKNATARSNNEIRMVKIYSWIKSKSILGISYNLYEKLAGVKDEDKKTKMVREVKPDKELDDIREILMGRPGLLVLDEAHTPRNQRSCIWKTLSKVETQKRILLSGTPFQNNFLELCNVLGLARPKYLERLTSTLKKSGMTVTKRGKKNLGNEINNRGIEELKAVMLPFVHVHKGSILQSSLPGLRECVVVLNPPELQRRVLESIEVTHNRKTKNVFETEHKLSLVSVHPSLVSRCKISEKERLSIDEALLAQLKKVRLDPNQSVKTRFLMEFVELCEVIKEKVLVFSQYIDPLKLIMKHLVSRFKWNPGEEVLYMHGKLEQKQRQTLINEFNDPKSKAKVFLASTKACSEGISLVGASRVILLDVVWNPAVERQAISRAYRIGQKRIVYTYHLVAKGTPEGPKYCKQAQKDRISELVFACSSRHDKGKEKIAEAVTEDKVLDTMVEHSKLGDMFDNLIVQPKEADLVEGFSILMP

target: VDD, 3FLAG-tagged (pVDD:VDD-3FLAG) (Arabidopsis (Col-0)); experiment: affinity purification with mass spectrometry

binding, binds:
B1, B2, B3
